The values below come from the supplement of paper PMC12819154, “High-throughput peptide-centric local stability assay extends protein–ligand identification to membrane proteins, tissues and bacteria” (Nature Structural & Molecular Biology, 2025).

The chains behind the UniProt entries cited, without tags or fusion partners. Where a name states a change or a piece, a line headed by the entry shows the natural chain unless it says otherwise.
UniProt P97376: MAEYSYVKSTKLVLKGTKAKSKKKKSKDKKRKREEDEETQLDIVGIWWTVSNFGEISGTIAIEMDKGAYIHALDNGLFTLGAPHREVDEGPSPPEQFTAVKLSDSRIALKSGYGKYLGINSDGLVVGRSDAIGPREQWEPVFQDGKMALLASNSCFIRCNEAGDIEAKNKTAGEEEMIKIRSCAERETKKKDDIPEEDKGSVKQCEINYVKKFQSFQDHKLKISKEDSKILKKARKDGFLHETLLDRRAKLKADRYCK
UniProt P70441: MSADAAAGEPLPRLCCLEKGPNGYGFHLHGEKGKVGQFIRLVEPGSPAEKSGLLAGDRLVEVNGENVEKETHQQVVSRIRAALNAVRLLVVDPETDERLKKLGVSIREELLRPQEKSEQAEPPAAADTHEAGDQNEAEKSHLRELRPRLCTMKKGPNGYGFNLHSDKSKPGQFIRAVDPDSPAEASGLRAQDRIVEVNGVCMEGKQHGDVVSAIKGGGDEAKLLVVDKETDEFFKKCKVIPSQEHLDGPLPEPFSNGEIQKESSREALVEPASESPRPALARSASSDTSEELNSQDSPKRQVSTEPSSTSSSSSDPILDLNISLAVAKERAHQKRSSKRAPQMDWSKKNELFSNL
UniProt P70663: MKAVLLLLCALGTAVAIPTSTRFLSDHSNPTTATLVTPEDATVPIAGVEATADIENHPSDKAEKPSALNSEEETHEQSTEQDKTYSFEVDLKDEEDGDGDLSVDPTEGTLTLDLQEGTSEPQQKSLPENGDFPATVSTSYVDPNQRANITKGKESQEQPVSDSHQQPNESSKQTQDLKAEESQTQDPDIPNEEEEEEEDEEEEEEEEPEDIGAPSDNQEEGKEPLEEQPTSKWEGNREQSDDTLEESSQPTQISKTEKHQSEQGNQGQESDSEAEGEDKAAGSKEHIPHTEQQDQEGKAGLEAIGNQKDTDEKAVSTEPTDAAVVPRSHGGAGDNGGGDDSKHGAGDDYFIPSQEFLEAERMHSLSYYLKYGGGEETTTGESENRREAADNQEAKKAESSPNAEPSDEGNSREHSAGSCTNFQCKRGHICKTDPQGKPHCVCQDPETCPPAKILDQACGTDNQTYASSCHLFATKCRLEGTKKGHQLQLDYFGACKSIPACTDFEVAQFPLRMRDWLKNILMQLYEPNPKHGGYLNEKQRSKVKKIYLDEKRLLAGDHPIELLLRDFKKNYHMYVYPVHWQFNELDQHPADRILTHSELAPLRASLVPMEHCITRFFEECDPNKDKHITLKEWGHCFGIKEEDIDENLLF
UniProt P70318: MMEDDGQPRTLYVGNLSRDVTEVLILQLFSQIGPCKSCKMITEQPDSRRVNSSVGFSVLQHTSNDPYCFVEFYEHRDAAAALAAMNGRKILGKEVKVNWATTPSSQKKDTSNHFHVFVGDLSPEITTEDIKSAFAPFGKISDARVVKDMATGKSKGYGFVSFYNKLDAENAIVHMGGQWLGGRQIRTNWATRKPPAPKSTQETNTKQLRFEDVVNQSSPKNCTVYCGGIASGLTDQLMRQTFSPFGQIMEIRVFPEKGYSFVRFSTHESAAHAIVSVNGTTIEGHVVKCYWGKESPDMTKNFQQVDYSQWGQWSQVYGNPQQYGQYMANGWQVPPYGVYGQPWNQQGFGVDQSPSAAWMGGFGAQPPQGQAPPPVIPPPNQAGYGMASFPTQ
UniProt P97807: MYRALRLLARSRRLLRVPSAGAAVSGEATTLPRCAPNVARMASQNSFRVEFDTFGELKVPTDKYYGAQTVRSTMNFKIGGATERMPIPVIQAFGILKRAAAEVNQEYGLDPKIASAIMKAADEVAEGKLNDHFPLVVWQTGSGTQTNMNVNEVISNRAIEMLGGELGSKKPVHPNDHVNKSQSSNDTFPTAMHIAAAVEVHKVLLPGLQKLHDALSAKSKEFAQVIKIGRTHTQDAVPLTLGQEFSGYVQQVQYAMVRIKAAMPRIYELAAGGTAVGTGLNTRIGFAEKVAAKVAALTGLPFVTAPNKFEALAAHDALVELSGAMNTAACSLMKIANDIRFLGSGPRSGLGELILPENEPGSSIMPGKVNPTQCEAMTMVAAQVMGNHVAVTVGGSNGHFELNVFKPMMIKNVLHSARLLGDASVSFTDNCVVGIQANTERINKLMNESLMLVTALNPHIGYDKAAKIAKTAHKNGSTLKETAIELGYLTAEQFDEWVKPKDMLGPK
UniProt P70662: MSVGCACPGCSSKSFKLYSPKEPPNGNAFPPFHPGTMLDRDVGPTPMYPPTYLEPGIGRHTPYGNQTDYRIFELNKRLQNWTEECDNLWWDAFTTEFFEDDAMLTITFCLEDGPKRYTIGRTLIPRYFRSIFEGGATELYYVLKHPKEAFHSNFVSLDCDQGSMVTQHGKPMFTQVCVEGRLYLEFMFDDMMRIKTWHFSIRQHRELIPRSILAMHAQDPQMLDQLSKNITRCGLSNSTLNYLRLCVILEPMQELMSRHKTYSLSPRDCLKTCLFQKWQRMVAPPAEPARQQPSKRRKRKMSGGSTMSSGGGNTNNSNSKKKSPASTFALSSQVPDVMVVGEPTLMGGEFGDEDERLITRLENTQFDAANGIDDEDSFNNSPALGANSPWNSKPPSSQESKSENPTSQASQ
UniProt Q01730: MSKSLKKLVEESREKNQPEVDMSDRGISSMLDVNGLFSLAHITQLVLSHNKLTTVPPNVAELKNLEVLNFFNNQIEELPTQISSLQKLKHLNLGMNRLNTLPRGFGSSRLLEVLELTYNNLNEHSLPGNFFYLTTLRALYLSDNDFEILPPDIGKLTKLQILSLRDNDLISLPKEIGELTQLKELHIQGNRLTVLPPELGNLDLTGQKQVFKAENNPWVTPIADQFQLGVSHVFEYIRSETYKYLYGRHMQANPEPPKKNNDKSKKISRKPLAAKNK
UniProt P70296: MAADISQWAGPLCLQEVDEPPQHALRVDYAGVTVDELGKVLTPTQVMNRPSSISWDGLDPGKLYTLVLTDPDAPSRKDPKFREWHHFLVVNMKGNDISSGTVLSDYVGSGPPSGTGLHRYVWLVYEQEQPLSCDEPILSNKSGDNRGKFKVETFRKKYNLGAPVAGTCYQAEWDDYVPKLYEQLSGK
UniProt P68254: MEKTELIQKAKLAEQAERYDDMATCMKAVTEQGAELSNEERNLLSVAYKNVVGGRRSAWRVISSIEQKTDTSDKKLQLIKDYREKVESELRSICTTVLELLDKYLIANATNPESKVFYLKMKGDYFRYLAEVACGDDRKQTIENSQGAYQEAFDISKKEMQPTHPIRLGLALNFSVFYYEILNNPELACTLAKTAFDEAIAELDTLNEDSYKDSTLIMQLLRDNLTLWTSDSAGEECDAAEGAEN
UniProt P81270: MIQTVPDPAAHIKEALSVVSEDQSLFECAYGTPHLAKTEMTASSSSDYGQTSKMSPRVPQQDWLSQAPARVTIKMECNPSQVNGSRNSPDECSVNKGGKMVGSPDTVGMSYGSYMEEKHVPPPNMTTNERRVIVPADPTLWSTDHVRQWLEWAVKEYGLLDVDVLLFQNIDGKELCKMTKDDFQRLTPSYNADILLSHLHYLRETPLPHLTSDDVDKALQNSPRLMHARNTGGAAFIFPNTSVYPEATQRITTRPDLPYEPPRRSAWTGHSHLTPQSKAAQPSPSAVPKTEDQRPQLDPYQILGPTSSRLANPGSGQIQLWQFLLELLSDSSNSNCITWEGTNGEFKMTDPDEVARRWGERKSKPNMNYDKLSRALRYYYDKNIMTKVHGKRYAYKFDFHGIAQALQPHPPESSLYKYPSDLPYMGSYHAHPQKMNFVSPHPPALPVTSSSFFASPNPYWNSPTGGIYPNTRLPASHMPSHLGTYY
UniProt P97290: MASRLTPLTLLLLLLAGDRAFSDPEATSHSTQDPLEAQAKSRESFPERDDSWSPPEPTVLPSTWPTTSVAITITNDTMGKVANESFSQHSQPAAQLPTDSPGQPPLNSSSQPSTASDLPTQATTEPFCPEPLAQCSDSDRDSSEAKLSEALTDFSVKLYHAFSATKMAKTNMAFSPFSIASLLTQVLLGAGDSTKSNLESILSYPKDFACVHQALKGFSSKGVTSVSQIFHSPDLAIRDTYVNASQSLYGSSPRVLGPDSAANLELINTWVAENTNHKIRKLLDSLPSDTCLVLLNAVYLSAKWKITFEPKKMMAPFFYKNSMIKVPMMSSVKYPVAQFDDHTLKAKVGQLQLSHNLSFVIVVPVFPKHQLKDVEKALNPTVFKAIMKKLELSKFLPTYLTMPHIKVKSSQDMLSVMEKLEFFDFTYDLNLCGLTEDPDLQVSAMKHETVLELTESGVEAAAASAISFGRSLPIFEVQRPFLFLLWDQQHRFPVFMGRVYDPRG
UniProt P70351, whole entry: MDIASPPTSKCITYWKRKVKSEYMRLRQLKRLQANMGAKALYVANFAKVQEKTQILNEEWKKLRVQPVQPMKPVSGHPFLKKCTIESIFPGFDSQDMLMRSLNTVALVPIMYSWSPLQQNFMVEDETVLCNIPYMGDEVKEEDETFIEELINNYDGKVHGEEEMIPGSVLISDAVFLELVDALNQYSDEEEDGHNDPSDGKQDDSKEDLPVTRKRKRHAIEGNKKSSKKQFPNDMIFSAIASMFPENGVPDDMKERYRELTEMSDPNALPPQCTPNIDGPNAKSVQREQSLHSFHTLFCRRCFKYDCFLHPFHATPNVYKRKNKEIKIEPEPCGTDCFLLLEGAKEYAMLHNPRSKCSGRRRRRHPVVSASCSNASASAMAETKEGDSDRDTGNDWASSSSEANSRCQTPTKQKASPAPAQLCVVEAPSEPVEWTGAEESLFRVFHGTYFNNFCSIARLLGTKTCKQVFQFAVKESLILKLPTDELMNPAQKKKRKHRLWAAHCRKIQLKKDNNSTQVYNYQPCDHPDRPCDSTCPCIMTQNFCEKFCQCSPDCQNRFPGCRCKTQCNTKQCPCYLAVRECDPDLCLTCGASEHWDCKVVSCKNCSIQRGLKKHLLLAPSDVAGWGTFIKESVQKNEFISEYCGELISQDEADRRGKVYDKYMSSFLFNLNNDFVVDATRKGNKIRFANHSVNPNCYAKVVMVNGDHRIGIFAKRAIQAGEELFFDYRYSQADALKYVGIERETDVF
UniProt P97315: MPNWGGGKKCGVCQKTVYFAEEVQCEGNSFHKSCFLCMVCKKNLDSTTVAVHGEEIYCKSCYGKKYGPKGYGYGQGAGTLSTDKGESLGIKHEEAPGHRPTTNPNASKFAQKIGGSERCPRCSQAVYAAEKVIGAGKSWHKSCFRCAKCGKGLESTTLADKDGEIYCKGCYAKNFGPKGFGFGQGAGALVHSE
UniProt P70372, whole entry: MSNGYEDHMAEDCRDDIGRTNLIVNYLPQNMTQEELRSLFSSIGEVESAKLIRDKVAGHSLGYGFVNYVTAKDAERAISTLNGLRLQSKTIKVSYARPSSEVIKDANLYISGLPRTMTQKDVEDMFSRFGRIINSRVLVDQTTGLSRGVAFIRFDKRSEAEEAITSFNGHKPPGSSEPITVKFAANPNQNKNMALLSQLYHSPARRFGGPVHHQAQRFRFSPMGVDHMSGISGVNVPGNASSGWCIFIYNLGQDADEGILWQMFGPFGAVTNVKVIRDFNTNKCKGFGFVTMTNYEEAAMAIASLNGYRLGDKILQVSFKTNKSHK
UniProt P63321: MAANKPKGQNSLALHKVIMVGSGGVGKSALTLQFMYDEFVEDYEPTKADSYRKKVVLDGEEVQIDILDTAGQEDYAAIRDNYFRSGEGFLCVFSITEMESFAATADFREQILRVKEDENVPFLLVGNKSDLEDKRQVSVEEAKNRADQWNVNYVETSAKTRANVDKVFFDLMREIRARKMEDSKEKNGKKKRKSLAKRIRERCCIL
UniProt P70224: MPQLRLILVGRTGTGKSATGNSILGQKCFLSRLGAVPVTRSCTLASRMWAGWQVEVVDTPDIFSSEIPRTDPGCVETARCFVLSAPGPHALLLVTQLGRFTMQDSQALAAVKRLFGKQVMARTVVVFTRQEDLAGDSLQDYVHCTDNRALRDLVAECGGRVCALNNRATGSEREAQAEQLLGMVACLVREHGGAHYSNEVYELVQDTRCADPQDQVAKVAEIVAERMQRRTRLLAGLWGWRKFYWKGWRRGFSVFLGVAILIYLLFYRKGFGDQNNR
UniProt P70265: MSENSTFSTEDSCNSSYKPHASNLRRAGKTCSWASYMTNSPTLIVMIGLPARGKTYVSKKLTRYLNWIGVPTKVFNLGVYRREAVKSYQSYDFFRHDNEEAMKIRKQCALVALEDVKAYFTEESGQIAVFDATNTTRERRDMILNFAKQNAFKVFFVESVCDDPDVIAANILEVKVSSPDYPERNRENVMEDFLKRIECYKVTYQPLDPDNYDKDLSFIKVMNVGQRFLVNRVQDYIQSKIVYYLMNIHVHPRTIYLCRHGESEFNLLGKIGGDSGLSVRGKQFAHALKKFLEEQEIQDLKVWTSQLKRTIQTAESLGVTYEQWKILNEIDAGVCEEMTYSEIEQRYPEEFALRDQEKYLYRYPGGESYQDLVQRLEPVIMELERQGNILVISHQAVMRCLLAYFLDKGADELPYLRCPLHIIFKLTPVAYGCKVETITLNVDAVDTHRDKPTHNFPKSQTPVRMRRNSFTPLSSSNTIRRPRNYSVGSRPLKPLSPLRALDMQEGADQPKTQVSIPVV

The list shows a part of the results. Small differences around the control level are noise.

Compound in the assay: CN[C@@H]1C[C@H]2O[C@@](C)([C@@H]1OC)n1c3ccccc3c3c4c(c5c6ccccc6n2c5c31)C(=O)NC4 [staurosporine]
In words: log2 fold change of tryptic peptide abundance, ligand vs vehicle (limited proteolysis) (log2 ratio); higher = more trypsin-susceptible (destabilized). Conditions: ligand concentration: 20 uM; sample: mouse liver crude lysate; replicate design: treated separately.

For the target “UniProt P97465 (peptide sequence: DAWWCQAR, peptide start residue: 384)”, the log2 fold change was -0.335.
The same measure for “UniProt P97376 (peptide sequence: DDIPEEDKGSVK, peptide start residue: 192)”: 0.313; for “UniProt P70441 (peptide sequence: LLVVDKETDEFFK, peptide start residue: 223)”: -0.177; for “UniProt P83887 (peptide sequence: KREAFMEQFR, peptide start residue: 400)”: 0.716.
On to “UniProt P70663 (peptide sequence: HGGYLNEK, peptide start residue: 531)”, for which the log2 fold change is -0.588.
In the case of “UniProt P70318 (peptide sequence: FEDVVNQSSPK, peptide start residue: 210)” it was -0.73; in that of “UniProt P81122 (peptide sequence: ALTDLVSEGR, peptide start residue: 138)”, 0.278; in that of “UniProt Q02384 (peptide sequence: KKFDHDALNSK, peptide start residue: 1154)”, 1.01.
As to “UniProt P97807 (peptide sequence: RAAAEVNQEYGLDPK, peptide start residue: 98)”, the log2 fold change was -0.466.
The same measure for “UniProt P70297 (peptide sequence: DPGTVATKKEEEDLAK, peptide start residue: 163)”: -0.0769; for “UniProt P97792 (peptide sequence: MGAVPVMIPAQSK, peptide start residue: 348)”: -0.0612.
Turning to “UniProt P70172 (peptide sequence: TDNEMDSRPSFDETNK, peptide start residue: 326)”, the log2 fold change was determined as 0.0244.
The same measure for “UniProt P80317 (peptide sequence: GIDPFSLDALAK, peptide start residue: 296)”: -0.295; for “UniProt P97360 (peptide sequence: SSTPLHVHTVPR, peptide start residue: 29)”: -0.119.
For the target “UniProt P70662 (peptide sequence: MVAPPAEPAR, peptide start residue: 281)”, the log2 fold change is 0.00453.
Take “UniProt P70398 (peptide sequence: WVVPVLPK, peptide start residue: 84)”: the log2 fold change is -0.335.
Consider “UniProt Q01730 (peptide sequence: ELHIQGNR, peptide start residue: 184)”, for which the log2 fold change is -0.475.
The same measure for “UniProt P97461 (peptide sequence: RQAVDVSPLR, peptide start residue: 136)”: 0.187; for “UniProt Q02053 (peptide sequence: VGEFCHSR, peptide start residue: 175)”: -0.563; for “UniProt P70296 (peptide sequence: LYTLVLTDPDAPSRKDPK, peptide start residue: 63)”: -0.258.
The same measure for “UniProt Q00993 (peptide sequence: WIAIESLADR, peptide start residue: 709)”: -0.67; for “UniProt P68254 (peptide sequence: YDDMATCMK, peptide start residue: 19)”: 0.132.
With “UniProt P81270 (peptide sequence: YPSDLPYMGSYHAHPQK, peptide start residue: 418)”, the log2 fold change is -0.518.
On to “UniProt Q02357 (peptide sequence: LLLENGASPNLATTAGHTPLHTAAR, peptide start residue: 484)”, for which the log2 fold change was found to be 0.53.
In the case of “UniProt P97367 (peptide sequence: IVQPMIDQSNR, peptide start residue: 334)”, the log2 fold change was -0.0528.
The same measure for “UniProt P97290 (peptide sequence: DFACVHQALK, peptide start residue: 207)”: -0.543; for “UniProt P70351 (peptide sequence: VVMVNGDHR, peptide start residue: 700)”: 0.12; for “UniProt P83741 (peptide sequence: FQVSVTMDDAQKER, peptide start residue: 1855)”: -0.355.
For “UniProt Q00547 (peptide sequence: LKDENSQLK, peptide start residue: 728)”, the log2 fold change is -0.0989.
The same measure for “UniProt P97315 (peptide sequence: HEEAPGHRPTTNPNASK, peptide start residue: 92)”: 0.187; for “UniProt P97412 (peptide sequence: ISYPELTLK, peptide start residue: 1026)”: 0.332.
The same measure for “UniProt P70372 (peptide sequence: VSYARPSSEVIKDANLYISGLPR, peptide start residue: 93)”: -0.372; for “UniProt P63321 (peptide sequence: VIMVGSGGVGK, peptide start residue: 17)”: 0.257.
The same measure for “UniProt P70224 (peptide sequence: CADPQDQVAK, peptide start residue: 209)”: 0.257; for “UniProt P97333 (peptide sequence: TFCHWEHDSHAQLR, peptide start residue: 659)”: 0.0799.
Consider “UniProt P70265 (peptide sequence: DKPTHNFPK, peptide start residue: 450)”, for which the log2 fold change came to 0.371.
